Results from PubChem BioAssay AID1347075 (National Center for Advancing Translational Sciences (NCATS), 2019).
Values joined by “and” are separate entries in the source; they are usually repeats but may differ in a detail not shown here. Equal entries are not always repeated. About 5,500 (1.4%) of roughly 400,000 compounds were called active. Inconclusive results, whose numbers are uncertain, are shown with a selection of clear calls. Calls come from the whole dose curve; as a rule, active = well fitted cell-killing curve with a large enough effect; inconclusive = small, poorly fitted or top-dose-only effect, or effect the other way; inactive = flat fitted curve, though single readings scatter. Where the call is inconclusive, the potency comes from a doubtful curve fit.
% is set by controls: 0 for no effect and ±100 for the full control effect; potency is the fitted concentration of half-maximal effect.

Experiment: qHTS assay for MDR1-selective chemotherapeutics: Primary screen using the parental adenocarcinoma cell KB-3-1; note: nearly all actives have a fitted effect of over 60% in size
Conditions: KB-3-1 viability, CellTiter-Glo ATP luminescence, 72 h; activity change, negative = cytotoxic: at 46.1 µM (top of the series)
Outline: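 KB-3-1 cells, DMEM (no phenol red) + 10% FBS; compound by pin transfer, 72 h, 37 °C. Readout: CellTiter-Glo luminescence after 10 min. Data normalized, curve-fitted.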
With COc1cc(/C=C/c2cc(C(=O)O)c3ccccc3n2)ccc1OC(F)F the Potency was inconclusive: 32.6 µM [cytotoxic, single point].
With COc1ccc(CN(C)C(=O)c2cccc(NC(=O)CC3SC(N4CCCCC4)=NC3=O)c2)c(OC)c1 (configuration not stated) the Potency was active: 16.4 µM.
In the case of CCOC(=O)c1ccccc1NC(=S)N1CC(C)CC(C)C1 (configuration not stated), the Potency is reported as “inactive”.
With Cc1cc(C)cc(N(C(=O)CNC(=O)c2ccco2)C(C(=O)NC2CCCCC2)c2cccnc2)c1 (configuration not stated) the Potency was “inactive”.
In the case of CN(C)c1ccc(/C=C/c2ccnc3c(Cl)cccc23)cc1, the Potency is reported as active: 16.4 µM.
In the case of CCOc1ccc(C2c3[nH]c4ccccc4c3CCN2C(=O)CSc2ccccc2)cc1 (configuration not stated), the Potency is reported as inconclusive: 20.6 µM [cytotoxic, single point].
For COc1ccc(NC(=O)Nc2cccc3c2O[C@@H](CN(C)CC2CCCCC2)[C@@H](C)CN([C@H](C)CO)C3=O)cc1, the Potency was inconclusive: 20.6 µM [cytotoxic, single point].
With COc1ccc(N2C(=O)c3ccccc3NC(=O)C2C(=O)Nc2ccc(N3CCOCC3)cc2)cc1 (configuration not stated) the Potency was “inactive”.
For C=CCNc1oc(C2CCCC2)nc1C#N, the Potency was inconclusive: 16.4 µM [rising, partial curve, poor fit].
With CCOc1cc(CNCCSc2nnnn2C)ccc1OCc1ccc(Cl)cc1Cl the Potency was “inactive”.
For Cc1ccc(NC(=O)CN2CCN(S(=O)(=O)c3ccc4c(c3)OCCO4)CC2)c(C)c1, the Potency was “inactive”.
In the case of CC(=O)NC(c1ccccc1)c1nc(-c2cnc3ccccc3c2)cs1 (configuration not stated), the activity change, negative = cytotoxic is reported as inconclusive: 0%.
With CCCCn1c(=O)[nH]c(=O)c2c1nc(-c1ccccc1F)n2Cc1ccccc1OC the Potency was inconclusive: 23.1 µM [cytotoxic, single point].
For Cc1ccccc1OCCC(=O)Nc1cc(S(=O)(=O)N2CCCCC2)ccc1N1CCN(C)CC1, the Potency was “inactive”.
In the case of CCOC(CNC(=O)c1cccn2c(=O)c3cc(Cl)ccc3nc12)OCC, the Potency is reported as inconclusive: 16.4 µM [cytotoxic, single point].
For Nc1nc(-c2ccc(Br)cc2)cs1, the Potency was inconclusive: 22.4 µM [cytotoxic, partial curve, poor fit].
In the case of C=C(C)COc1ccc(-c2n[nH]c(C)c2-c2ccccc2OC)c(O)c1, the Potency is reported as inconclusive: 29.1 µM [cytotoxic, single point].
For COc1cc(/C=N/Nc2cccc(C)c2)cc(Br)c1O, the Potency was inconclusive: 9.2 µM [rising, partial curve, poor fit].
For Cc1nc(N/N=C/c2ccc(O)cc2O)cc(N2CCOCC2)n1, the Potency was inconclusive: 29.1 µM [cytotoxic, single point].
For N#Cc1c(-c2ccccc2)nc(N2CCN(Cc3ccccc3)CC2)[nH]c1=O, the Potency was inconclusive: 29.1 µM [cytotoxic, single point].
With COc1ccccc1NC(=S)N/N=C/c1cccc(C)c1 the Potency was active: 14.6 µM.
With Clc1ccccc1-c1nc(/C=N/N2CCOCC2)c2ccccn12 the Potency was inconclusive: 0.651 µM [rising, partial curve].
For CCOc1ccc2nc(NCCNC(=O)CC)c(C#N)cc2c1, the Potency was “inactive”.
In the case of C[C@H](CO)N1C[C@H](C)[C@@H](CN(C)Cc2ccccc2)OCCCC[C@H](C)Oc2ccc(N(C)C)cc2C1=O, the Potency is reported as “inactive”.
With Cc1ccc(/C=C2\SC(=S)N(CCC(=O)N3CCOCC3)C2=O)cc1 the Potency was active: 11.6 µM.
With Nc1cc(=O)[nH]c(SCc2csc(-c3ccccc3)n2)n1 the Potency was inconclusive: 29.1 µM [cytotoxic, single point].
In the case of O=C1CC(c2ccccc2)CC2=C1CN(C1CCCCC1)CN2 (configuration not stated), the Potency is reported as inconclusive: 29.1 µM [cytotoxic, single point].
With Clc1ccc(C[n+]2cc(-c3ccc(Cl)cc3)n3c2CCC3)cc1 the Potency was inconclusive: 10.3 µM [cytotoxic, partial curve, poor fit].
With N=C1C=CC(=C(c2ccc(N)cc2)c2ccc(N)cc2)C=C1 the Potency was active: 3.66 µM.
In the case of COc1ccc(C(=O)N2CCN(c3cccc(Cl)c3)CC2)c(OC)c1, the Potency is reported as active: 14.6 µM.
In the case of Cn1c(NCc2ccco2)nc2c1c(=O)n(Cc1ccc(Cl)cc1)c(=O)n2C, the Potency is reported as inconclusive: 11.6 µM [cytotoxic, partial curve, poor fit].
In the case of CCc1nc(N2CCN(S(C)(=O)=O)CC2)c2c3c(sc2n1)CCCC3, the Potency is reported as inconclusive: 14.6 µM [cytotoxic, partial curve, poor fit].
For COc1cc(C(=O)Nc2ccc3c(c2)CCN3C(C)=O)cc(OC)c1OC, the Potency was active: 3.26 µM.
For CC1=C(C(=O)Nc2cc(Cl)ccc2C)C(c2ccccc2F)n2ncnc2N1 (configuration not stated), the Potency was “inactive”.
With CC(C)c1cc(NC(=O)CCl)on1 the Potency was inconclusive: 25.9 µM [cytotoxic, single point].
In the case of Cc1cc(C=O)c(C)n1-c1ccc(NC2CCCCC2)c([N+](=O)[O-])c1, the Potency is reported as inconclusive: 14.6 µM [cytotoxic, single point].
With Cn1ccc2c(N3CCCCCCC3)cc3c(c21)C1CCC3O1 (configuration not stated) the Potency was inconclusive: 32.6 µM [cytotoxic, partial curve, poor fit].
For O=[N+]([O-])c1ccc(N/N=C/c2ccc(OCc3cccc4ccccc34)cc2)nc1, the Potency was inconclusive: 20.6 µM [cytotoxic, single point].
In the case of O=c1[nH]c(SCc2ccc(Cl)cc2)nc2ccccc12, the Potency is reported as inconclusive: 8.2 µM [cytotoxic, partial curve, poor fit].
In the case of Cc1ccc(Oc2ccc(OCC(=O)NC3CCS(=O)(=O)C3)cc2)cc1 (configuration not stated), the Potency is reported as inconclusive: 20.6 µM [cytotoxic, single point].
In the case of COc1ccc(CCNC(=O)CSc2cc(=O)n(C)c3ccccc23)cc1OC, the Potency is reported as “inactive”.
With O=C(Nc1cnn(Cc2ccc(F)cc2)c1)C(c1ccccc1)c1ccccc1 the Potency was inconclusive: 14.6 µM [cytotoxic, single point].
In the case of Cc1ccccc1NC(C)C(=O)N/N=C/c1ccccc1OCc1cccc(Br)c1 (configuration not stated), the Potency is reported as inconclusive: 20.6 µM [cytotoxic, single point].
For CC(C)(C)c1csc(N/N=C/c2cccnc2)n1, the Potency was inconclusive: 20.6 µM [cytotoxic, single point].
With COC(=O)c1cn(C(=O)/C=C/c2ccc(OC)c(OC)c2)c2ccccc12 the Potency was “inactive”.
For Cn1c(SCC(=O)O)nnc1-c1cccc(NC(=O)c2cccc3ccccc23)c1, the Potency was “inactive”.
For Cc1ccc(CNC(=O)C(=O)NCCC2CCCCN2S(=O)(=O)c2ccccc2)cc1 (configuration not stated), the Potency was “inactive”.
For Cc1ccc(NC(=O)c2cc(S(=O)(=O)N3CCCCC3)cs2)cc1, the Potency was inconclusive: 25.9 µM [cytotoxic, single point].
With COc1ccc(N2C(=O)CS/C2=N\C(=S)Nc2ccccc2)cc1 the Potency was “inactive”.
In the case of O=c1c(Cl)c(NCCCO)cnn1-c1nc2ccccc2[nH]1, the Potency is reported as inconclusive: 2.59 µM [cytotoxic, full curve, poor fit].
For COc1ccc(-c2cc(NC(C)=O)c3ncc(-c4ccc(OC)c(OC)c4)n3c2)c(OC)c1, the Potency was “inactive”.
For CC(=Nc1ccccc1)C1=C(O)C(Cc2ccccc2)NC1=O (configuration not stated), the Potency was active: 0.0065 µM.
With COc1cc2c(C(=O)N3CCN(c4cccc(Cl)c4)CC3)cn(C)c(=O)c2cc1OC the Potency was inconclusive: 29.1 µM [cytotoxic, single point] and inconclusive: 7.31 µM [cytotoxic, partial curve].
In the case of O=C(Nc1cccc(Br)c1)Nc1nc2c(s1)CCCCCC2, the Potency is reported as “inactive”.
For CCOC(=O)c1cc2c(nc1C)-c1cc(Cl)cc(Cl)c1OC2O (configuration not stated), the Potency was “inactive”.
For CCOC(=O)c1sc(NC(=O)CSc2nnc(Cc3ccccc3)o2)c(C(=O)OCC)c1C, the Potency was “inactive”.
In the case of CC(=O)c1ccc(S(=O)(=O)N2CCN(c3nc4c(C)c(C)ccc4cc3C#N)CC2)cc1, the Potency is reported as inconclusive: 22.4 µM [cytotoxic, single point].
With Cc1ccc(NC(=O)c2ccc(S(=O)(=O)N3CCC(C)CC3)cc2)nc1 the Potency was active: 25.9 µM.
For CCN1C(=O)C(CC(=O)Nc2ccccc2)S/C1=N\c1ccccn1 (configuration not stated), the activity change, negative = cytotoxic was inconclusive: 4.93%.
In the case of O=C(c1cc(COc2cccc(C(F)(F)F)c2)on1)N1C[C@@H]2CCC[C@H]1C2, the Potency is reported as inconclusive: 20.6 µM [cytotoxic, partial curve, poor fit].
In the case of Cc1ccsc1C(=O)N(c1nc2ccccc2s1)c1c(C)cccc1C, the Potency is reported as inconclusive: 18.4 µM [cytotoxic, single point].
For O=C(Nc1ccc(S(=O)(=O)N2CCCC2)cc1)c1ccc2c(=O)n3c(nc2c1)CCCCC3, the Potency was “inactive”.
For CC(C)n1nnnc1C1c2ccccc2C(=O)N1CCCn1ccnc1 (configuration not stated), the Potency was “inactive”.
For COc1cc(/C=C2\C(=O)N(c3ccc(NC(C)=O)cc3)N=C2c2ccccc2)ccc1O, the Potency was “inactive”.
With CCN1CCN(C(=O)NCc2ccccc2)CC1 the Potency was “inactive”.
In the case of COc1cc(C2C3=C(COC3=O)Oc3cc4c(cc32)OCO4)cc(OC)c1O (configuration not stated), the activity change, negative = cytotoxic is reported as inconclusive: 0%.
With COc1ccc(C(=O)Nn2c(SCC(=O)NCc3ccco3)nc3ccccc3c2=O)cc1 the Potency was inconclusive: 20.6 µM [cytotoxic, single point].
In the case of CCOC(=O)NC1(NCc2ccccc2)Oc2ccccc2O1, the Potency is reported as inconclusive: 29.1 µM [cytotoxic, single point].
For CCOC(CNC(=O)Cn1nc(C)c2ccccc21)OCC, the Potency was inconclusive: 18.4 µM [cytotoxic, partial curve, poor fit].
With Cc1cccnc1NC(=O)c1ccc(Cl)c(S(=O)(=O)N2CCCCC2)c1 the Potency was “inactive”.
With CC(C)(C)N=C1NN=C(c2ccc(Cl)cc2)CS1 the Potency was inconclusive: 18.4 µM [cytotoxic, single point].
With Cc1cccc(NC(=O)c2cccc(N3C(=O)C4C5C=CC(C6CC56)C4C3=O)c2)c1 (configuration not stated) the Potency was inconclusive: 20.6 µM [cytotoxic, single point].
